The supplement of paper PMC10849652
Some of the results follow.

The chains behind the UniProt entries cited, without tags or fusion partners. Where a name states a change or a piece, a line headed by the entry shows the natural chain unless it says otherwise.
UniProt Q15388, whole entry, looked up: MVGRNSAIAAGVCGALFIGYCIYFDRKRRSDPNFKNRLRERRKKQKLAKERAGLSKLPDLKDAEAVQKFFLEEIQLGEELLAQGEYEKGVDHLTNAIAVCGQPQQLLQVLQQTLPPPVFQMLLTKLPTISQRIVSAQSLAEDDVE
UniProt Q9Y3Q8: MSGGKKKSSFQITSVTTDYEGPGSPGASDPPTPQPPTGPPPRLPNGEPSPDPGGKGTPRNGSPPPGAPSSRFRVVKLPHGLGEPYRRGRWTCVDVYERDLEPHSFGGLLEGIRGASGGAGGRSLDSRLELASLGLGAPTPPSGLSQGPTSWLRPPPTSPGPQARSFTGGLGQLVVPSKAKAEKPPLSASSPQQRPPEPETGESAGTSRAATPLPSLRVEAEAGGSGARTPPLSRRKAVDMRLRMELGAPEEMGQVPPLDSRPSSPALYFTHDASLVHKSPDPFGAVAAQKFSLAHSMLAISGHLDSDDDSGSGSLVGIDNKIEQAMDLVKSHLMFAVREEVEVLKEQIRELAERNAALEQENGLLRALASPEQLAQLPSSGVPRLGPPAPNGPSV
UniProt P11387: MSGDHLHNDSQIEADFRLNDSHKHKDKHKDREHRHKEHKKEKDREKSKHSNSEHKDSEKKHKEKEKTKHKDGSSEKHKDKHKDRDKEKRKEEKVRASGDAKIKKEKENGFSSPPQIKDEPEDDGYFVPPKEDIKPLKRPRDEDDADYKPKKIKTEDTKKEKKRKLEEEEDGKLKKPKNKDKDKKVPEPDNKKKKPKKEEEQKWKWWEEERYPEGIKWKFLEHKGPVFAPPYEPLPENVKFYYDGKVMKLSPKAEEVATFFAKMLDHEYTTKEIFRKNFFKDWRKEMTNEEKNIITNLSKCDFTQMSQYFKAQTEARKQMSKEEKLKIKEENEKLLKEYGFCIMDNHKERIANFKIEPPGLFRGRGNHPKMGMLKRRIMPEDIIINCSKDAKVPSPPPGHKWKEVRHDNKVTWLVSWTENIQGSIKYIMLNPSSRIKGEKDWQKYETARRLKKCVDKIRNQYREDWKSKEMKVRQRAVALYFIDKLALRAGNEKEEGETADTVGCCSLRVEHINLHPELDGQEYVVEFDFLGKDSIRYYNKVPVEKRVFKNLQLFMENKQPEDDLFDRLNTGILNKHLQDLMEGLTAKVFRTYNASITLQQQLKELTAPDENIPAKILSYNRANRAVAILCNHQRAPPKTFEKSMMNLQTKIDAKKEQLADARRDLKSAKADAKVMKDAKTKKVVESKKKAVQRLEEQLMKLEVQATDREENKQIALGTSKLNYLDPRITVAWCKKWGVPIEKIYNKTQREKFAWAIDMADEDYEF
UniProt O95985: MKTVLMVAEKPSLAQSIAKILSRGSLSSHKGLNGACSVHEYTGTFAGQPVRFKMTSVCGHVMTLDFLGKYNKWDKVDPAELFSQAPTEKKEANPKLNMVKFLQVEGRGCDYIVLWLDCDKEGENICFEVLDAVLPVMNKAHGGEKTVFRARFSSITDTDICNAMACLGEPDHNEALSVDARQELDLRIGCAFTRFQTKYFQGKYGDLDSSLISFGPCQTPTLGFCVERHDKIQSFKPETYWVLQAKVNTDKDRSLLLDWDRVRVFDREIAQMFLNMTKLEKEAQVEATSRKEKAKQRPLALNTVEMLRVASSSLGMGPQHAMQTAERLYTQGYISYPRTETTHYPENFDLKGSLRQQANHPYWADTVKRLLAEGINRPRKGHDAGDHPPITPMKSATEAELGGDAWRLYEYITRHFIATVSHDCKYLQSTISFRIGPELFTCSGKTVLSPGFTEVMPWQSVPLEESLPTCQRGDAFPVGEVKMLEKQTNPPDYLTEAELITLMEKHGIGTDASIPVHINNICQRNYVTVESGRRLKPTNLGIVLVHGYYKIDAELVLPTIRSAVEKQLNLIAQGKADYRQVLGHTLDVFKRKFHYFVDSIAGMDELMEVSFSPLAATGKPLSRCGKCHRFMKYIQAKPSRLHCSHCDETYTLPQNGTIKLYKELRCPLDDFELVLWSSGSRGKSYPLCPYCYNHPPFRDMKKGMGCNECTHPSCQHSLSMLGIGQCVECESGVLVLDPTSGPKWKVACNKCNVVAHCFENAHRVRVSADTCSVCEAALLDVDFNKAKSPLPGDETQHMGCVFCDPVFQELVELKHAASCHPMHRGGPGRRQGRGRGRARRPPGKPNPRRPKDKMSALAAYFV
UniProt P06753, whole entry, looked up: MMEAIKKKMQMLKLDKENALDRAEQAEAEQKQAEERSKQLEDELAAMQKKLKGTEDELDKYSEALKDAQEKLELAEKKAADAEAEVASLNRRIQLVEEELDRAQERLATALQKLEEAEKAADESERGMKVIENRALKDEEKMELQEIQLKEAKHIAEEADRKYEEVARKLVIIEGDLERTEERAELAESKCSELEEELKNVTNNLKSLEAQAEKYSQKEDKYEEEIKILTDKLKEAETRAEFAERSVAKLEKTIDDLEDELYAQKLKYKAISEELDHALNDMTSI
UniProt P29144: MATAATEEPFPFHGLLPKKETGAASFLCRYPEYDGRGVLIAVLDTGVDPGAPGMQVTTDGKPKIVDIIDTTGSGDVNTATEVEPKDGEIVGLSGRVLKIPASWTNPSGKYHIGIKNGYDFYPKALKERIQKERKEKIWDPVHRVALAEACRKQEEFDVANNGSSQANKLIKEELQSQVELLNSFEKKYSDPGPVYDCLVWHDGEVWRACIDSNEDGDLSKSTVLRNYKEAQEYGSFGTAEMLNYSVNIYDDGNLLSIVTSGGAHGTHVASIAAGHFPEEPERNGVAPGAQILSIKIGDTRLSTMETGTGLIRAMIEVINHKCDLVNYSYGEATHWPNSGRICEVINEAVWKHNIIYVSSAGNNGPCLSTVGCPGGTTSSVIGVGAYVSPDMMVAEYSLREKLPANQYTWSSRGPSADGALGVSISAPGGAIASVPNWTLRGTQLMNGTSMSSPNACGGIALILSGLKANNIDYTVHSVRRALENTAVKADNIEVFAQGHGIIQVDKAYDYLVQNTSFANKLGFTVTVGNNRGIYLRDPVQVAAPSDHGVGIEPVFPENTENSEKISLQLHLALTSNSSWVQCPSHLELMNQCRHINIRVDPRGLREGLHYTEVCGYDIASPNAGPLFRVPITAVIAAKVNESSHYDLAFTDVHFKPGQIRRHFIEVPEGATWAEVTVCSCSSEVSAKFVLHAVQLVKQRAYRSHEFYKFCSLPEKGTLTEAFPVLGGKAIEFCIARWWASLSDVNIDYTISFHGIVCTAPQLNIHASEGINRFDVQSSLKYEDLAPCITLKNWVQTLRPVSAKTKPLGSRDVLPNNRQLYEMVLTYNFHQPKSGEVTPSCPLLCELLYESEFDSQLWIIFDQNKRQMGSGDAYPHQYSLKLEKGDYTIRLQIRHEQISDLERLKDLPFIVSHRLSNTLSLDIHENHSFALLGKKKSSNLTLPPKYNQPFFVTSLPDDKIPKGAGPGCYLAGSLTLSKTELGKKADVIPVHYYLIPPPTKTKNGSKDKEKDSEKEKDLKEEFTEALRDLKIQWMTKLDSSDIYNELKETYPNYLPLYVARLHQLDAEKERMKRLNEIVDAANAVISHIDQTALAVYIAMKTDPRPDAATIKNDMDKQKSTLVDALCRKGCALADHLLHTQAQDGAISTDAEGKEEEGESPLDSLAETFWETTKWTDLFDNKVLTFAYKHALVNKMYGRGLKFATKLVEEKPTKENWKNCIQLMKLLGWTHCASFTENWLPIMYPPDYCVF
UniProt O96008: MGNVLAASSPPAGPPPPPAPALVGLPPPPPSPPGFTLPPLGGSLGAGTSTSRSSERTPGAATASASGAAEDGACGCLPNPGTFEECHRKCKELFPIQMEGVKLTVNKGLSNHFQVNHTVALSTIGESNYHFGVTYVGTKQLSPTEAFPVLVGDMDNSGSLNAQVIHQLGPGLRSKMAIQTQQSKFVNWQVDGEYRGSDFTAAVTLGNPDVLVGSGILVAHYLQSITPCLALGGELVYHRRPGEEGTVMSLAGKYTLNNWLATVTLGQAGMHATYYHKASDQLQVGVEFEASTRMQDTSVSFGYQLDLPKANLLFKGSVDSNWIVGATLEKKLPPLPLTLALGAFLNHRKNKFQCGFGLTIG
UniProt O43715: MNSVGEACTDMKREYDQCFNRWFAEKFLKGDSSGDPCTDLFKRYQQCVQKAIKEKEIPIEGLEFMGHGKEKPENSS
UniProt Q15643: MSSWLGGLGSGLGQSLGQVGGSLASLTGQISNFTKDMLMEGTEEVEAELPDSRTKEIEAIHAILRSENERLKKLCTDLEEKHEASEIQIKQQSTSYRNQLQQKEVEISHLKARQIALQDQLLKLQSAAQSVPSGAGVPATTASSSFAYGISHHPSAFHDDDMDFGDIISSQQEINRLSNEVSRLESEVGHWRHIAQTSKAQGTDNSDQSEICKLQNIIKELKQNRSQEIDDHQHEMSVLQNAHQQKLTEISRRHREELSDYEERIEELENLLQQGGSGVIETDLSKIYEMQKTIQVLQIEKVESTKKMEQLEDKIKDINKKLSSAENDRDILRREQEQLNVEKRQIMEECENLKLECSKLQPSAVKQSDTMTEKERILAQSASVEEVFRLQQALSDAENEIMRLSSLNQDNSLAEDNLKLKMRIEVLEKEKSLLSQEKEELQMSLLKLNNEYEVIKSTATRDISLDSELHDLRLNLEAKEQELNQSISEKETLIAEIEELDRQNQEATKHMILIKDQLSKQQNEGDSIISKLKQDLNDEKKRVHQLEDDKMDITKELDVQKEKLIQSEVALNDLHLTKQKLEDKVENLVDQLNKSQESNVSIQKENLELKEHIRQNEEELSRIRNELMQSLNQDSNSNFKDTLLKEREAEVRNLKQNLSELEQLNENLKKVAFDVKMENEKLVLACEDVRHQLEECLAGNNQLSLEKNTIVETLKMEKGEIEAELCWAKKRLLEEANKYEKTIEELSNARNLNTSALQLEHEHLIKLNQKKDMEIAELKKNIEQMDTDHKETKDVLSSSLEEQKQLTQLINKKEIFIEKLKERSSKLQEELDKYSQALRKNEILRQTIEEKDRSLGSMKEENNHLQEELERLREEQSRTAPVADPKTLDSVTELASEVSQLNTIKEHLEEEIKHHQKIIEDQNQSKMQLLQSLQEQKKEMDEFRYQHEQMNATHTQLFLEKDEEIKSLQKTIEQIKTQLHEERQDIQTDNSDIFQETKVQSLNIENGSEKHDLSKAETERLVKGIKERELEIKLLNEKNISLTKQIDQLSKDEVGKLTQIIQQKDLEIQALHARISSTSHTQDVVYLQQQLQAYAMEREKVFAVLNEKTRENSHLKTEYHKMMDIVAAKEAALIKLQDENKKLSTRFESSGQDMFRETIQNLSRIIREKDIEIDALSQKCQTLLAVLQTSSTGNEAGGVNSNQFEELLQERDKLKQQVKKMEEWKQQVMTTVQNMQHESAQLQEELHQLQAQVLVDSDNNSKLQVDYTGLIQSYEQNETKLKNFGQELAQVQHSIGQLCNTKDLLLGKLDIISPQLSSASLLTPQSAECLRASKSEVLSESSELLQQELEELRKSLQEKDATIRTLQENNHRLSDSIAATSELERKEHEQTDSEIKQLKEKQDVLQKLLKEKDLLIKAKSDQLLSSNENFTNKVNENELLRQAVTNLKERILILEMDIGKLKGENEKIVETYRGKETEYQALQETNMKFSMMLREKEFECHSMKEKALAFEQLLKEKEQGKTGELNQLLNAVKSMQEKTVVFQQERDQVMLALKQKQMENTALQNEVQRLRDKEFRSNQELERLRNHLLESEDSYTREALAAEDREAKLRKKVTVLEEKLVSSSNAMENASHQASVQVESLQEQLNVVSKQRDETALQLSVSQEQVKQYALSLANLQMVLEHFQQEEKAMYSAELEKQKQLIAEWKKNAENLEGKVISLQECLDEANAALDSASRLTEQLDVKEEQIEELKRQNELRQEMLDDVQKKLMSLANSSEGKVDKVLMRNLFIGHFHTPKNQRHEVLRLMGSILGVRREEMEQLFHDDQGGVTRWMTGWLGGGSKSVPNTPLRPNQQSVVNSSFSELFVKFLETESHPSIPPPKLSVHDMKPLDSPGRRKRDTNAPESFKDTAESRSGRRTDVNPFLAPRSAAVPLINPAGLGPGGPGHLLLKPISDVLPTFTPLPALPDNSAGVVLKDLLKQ
UniProt Q96F44: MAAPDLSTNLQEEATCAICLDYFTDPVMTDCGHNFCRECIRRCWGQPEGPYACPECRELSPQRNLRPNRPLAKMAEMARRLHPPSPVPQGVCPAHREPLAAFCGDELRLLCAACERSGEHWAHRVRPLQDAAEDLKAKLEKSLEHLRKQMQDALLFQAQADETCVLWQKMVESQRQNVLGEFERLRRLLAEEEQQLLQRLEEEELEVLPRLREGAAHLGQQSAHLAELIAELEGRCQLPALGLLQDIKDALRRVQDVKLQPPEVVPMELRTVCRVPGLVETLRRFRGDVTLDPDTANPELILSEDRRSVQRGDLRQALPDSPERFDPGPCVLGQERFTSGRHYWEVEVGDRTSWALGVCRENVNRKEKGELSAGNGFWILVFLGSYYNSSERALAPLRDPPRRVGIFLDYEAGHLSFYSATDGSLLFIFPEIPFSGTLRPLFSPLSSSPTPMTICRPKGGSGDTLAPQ

Compound: CC1=C(C=C(C=C1)NC(=O)C2=CC(=CC=C2)C(C)(C)C#N)NC3=CC4=C(C=C3)N=CN(C4=O)C
Test: log2 fold change, soluble protein after heating vs DMSO (PISA); higher = thermal stabilisation; K562 cells, 10 uM, 30 min; active = over 0.2 and 3.5 SD of the protein, either way, in both replicates (recomputed)
Method in brief: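 For each measurement, 10 μM compound was applied for 30 min to K562 cells at 2×10^6 cells/mL. Aliquots were heated for 3 min across 48°C-58°C, pooled, and extracted in PBS with 0.5% NP-40 at 4°C; the supernatant after 21,000xg for 90 min was soluble protein. This was quantified by TMTpro 16plex LC-MS/MS with channel sums equalised, and thermal stability was reported relative to control samples from duplicates, on a log2 fold-change scale.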

| Target | log2 fold change |
| --- | --- |
| TOMM20 (UniProt Q15388) | inactive: 0.058 |
| TSEN34 (UniProt Q9BSV6) | inactive: 0.013 |
| TSC22D4 (UniProt Q9Y3Q8) | inactive: 0.019 |
| TOP1 (UniProt P11387) | inactive: 0.031 |
| TRIP13 (UniProt Q15645) | inactive: -0.026 |
| TOP3B (UniProt O95985) | inactive: -0.009 |
| TRIM4 (UniProt Q9C037) | inactive: -0.031 |
| TPM3 isoform 4 (UniProt P06753) | inactive: -0.033 |
| TPP2 (UniProt P29144) | inactive: 0.024 |
| TOMM40 (UniProt O96008) | inactive: 0.045 |
| TRAPPC8 (UniProt Q9Y2L5) | inactive: 0.079 |
| TOR2A (UniProt Q5JU69) | inactive: -0.049 |
| TRIAP1 (UniProt O43715) | inactive: -0.012 |
| TRIP11 (UniProt Q15643) | inactive: 0.006 |
| TRIP6 (UniProt Q15654) | inactive: -0.006 |
| TP53RK (UniProt Q96S44) | inactive: 0.015 |
| TOR1AIP2 (UniProt Q8NFQ8) | inactive: 0.002 |
| TOE1 (UniProt Q96GM8) | inactive: 0.099 |
| TPM4, A0A2R8Y5V9 | inactive: -0.049 |
| TRIM11 (UniProt Q96F44) | inactive: -0.068 |
| TRMT6 (UniProt Q9UJA5) | inactive: -0.079 |
| TOM1 isoform 2 (UniProt O60784) | inactive: 0.17 |
| TP53I3 (UniProt Q53FA7) | inactive: -0.033 |

Another view of some results above.
Target,log2 fold change
TOP1 (UniProt P11387),inactive: 0.031
TRIP13 (UniProt Q15645),inactive: -0.026
